Source: PubChem BioAssay AID602196 (INSERM, 2012)
Shown is one part, drawn at random, of about 23,000 reagents. 455 of them (2%) count as active. 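Active includes both protection and sensitisation; some change values fall well beyond the stated -50 to +50 range.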 A number with no mark means an inactive call. Not all columns of the deposit are shown. No sequences are given here. The record does not give: the amount of reagent.

- Test: 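Knock-downs that protect lung cancer cells from cisplatin or sensitise them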
- Cell system: human A549 lung cancer cells
- Reagent: siRNA pair against human genes
- Duration: 48 h transfection before cisplatin; time from cisplatin to read-out not stated
- Challenge: cisplatin at a dose killing half of control-siRNA cells; exact dose and duration not given
- Detection: 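Cisplatin cell death as a shift from the 50% death seen with control siRNA; siRNAs toxic or growth-blocking alone scored 0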
- Reading the numbers: two-siRNA summed score (-2 to +2): higher = both siRNAs protect from cisplatin killing; -2 means both sensitise
- Active means: 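siRNAs harmful alone (LDH or WST-1) get 0; others get +1 for less and -1 for more cisplatin killing; genes are active when the two siRNAs give the same sign, summing to ±2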
- Meaning of the calls: active = both siRNAs shift cisplatin killing the same way; inactive = no consistent shift, or siRNA harmful alone

With knock-down of KDM6A (lysine demethylase 6A), the screen gave two-siRNA summed score (-2 to +2) = 0. Depletion of LOC283343 gave: two-siRNA summed score (-2 to +2) = 0. Knock-down of ANXA10 (annexin A10) resulted in: two-siRNA summed score (-2 to +2) = 1. Against TYW5 (tRNA-yW synthesizing protein 5), the values are two-siRNA summed score (-2 to +2) = 0. FSHB (follicle stimulating hormone subunit beta) showed two-siRNA summed score (-2 to +2) = 0. Silencing of ART1 (ADP-ribosyltransferase 1) resulted in: two-siRNA summed score (-2 to +2) = 0.

Against VWF (von Willebrand factor), the entry reads two-siRNA summed score (-2 to +2) = 0. Silencing of TDRKH (tudor and KH domain containing) gave: two-siRNA summed score (-2 to +2) = 0. CPNE5 (copine 5) scored two-siRNA summed score (-2 to +2) = 0. After knock-down of TMOD3 (tropomodulin 3), the screen gave two-siRNA summed score (-2 to +2) = 0. Silencing of PHKB (phosphorylase kinase regulatory subunit beta) resulted in: two-siRNA summed score (-2 to +2) = -1. After knock-down of LOC400988, the screen gave two-siRNA summed score (-2 to +2) = 0.

Depletion of BOD1 (biorientation of chromosomes in cell division 1) resulted in: two-siRNA summed score (-2 to +2) = 0. For PLPP6 (phospholipid phosphatase 6), the entry reads two-siRNA summed score (-2 to +2) = 0. Knock-down of FAR2P1 (fatty acyl-CoA reductase 2 pseudogene 1) gave: two-siRNA summed score (-2 to +2) = 0. Silencing of EXOSC5 (exosome component 5) gave: two-siRNA summed score (-2 to +2) = -1. LOC441108 scored two-siRNA summed score (-2 to +2) = 1. Knock-down of SRSF6 (serine and arginine rich splicing factor 6) gave: two-siRNA summed score (-2 to +2) = 0.

With knock-down of PRKD3 (protein kinase D3), the record shows two-siRNA summed score (-2 to +2) = 0. Against CABLES2 (Cdk5 and Abl enzyme substrate 2) the deposit lists two-siRNA summed score (-2 to +2) = 0. Against NEDD9 the deposit lists two-siRNA summed score (-2 to +2) = 0. CNST (consortin, connexin sorting protein) gave two-siRNA summed score (-2 to +2) = -1.

Targets listed so far whose gene name begins with T or t:
TYW5 (tRNA-yW synthesizing protein 5): two-siRNA summed score (-2 to +2) = 0
TDRKH (tudor and KH domain containing): two-siRNA summed score (-2 to +2) = 0
TMOD3 (tropomodulin 3): two-siRNA summed score (-2 to +2) = 0

More reagents follow:
For ATP7B (ATPase copper transporting beta), the entry reads two-siRNA summed score (-2 to +2) = 0. After knock-down of ELF2 (E74 like ETS transcription factor 2), the record shows two-siRNA summed score (-2 to +2) = 0. With knock-down of DDRGK1 (DDRGK domain containing 1) the results were two-siRNA summed score (-2 to +2) = 1. Silencing of MFAP5 (microfibril associated protein 5) gave: two-siRNA summed score (-2 to +2) = 0. Depletion of CD82 (CD82 molecule) resulted in: two-siRNA summed score (-2 to +2) = 0. Against AJAP1 (adherens junctions associated protein 1), the values are two-siRNA summed score (-2 to +2) = 0.

For LOC391767 (retired record), the entry reads two-siRNA summed score (-2 to +2) = 1. Knock-down of AGFG2 (ArfGAP with FG repeats 2) resulted in: two-siRNA summed score (-2 to +2) = 0. Silencing of TEPSIN (TEPSIN adaptor related protein complex 4 accessory protein) resulted in: two-siRNA summed score (-2 to +2) = 0. PELI2 (pellino E3 ubiquitin protein ligase family member 2) scored two-siRNA summed score (-2 to +2) = 0. For GPR37 (G protein-coupled receptor 37), the entry reads two-siRNA summed score (-2 to +2) = 0. MPZL3 (myelin protein zero like 3) scored two-siRNA summed score (-2 to +2) = 0.

DAAM2 (dishevelled associated activator of morphogenesis 2) gave two-siRNA summed score (-2 to +2) = 0. ERCC3 (ERCC excision repair 3, TFIIH core complex helicase subunit) scored two-siRNA summed score (-2 to +2) = 0. Knock-down of FKBP11 (FKBP prolyl isomerase 11) came out at: two-siRNA summed score (-2 to +2) = 0. ADAMDEC1 (ADAM like decysin 1) showed two-siRNA summed score (-2 to +2) = 0. Silencing of ROBO3 (roundabout guidance receptor 3) gave: two-siRNA summed score (-2 to +2) = 1. For LOC440949 the deposit lists two-siRNA summed score (-2 to +2) = 0.
